{"source": "patent US20210220419A1", "about": "“Herbal Nutraceutical Formulation to Reduce Oxidative Stress, Viral and Microbial Infections, and Inflammation” (priority 2017, published 2021)", "system": "Low Density Lipoproteins, Human Plasma", "experiment": "LDL oxidation in a cell-free system, Cu2+ induced (Experiment 10)", "format": "biochemical", "details": "reference compounds, FIG. 6B"}
{"smiles": "CC(C)c1c(C(=O)Nc2ccccc2)c(-c2ccccc2)c(-c2ccc(F)cc2)n1CC[C@@H](O)C[C@@H](O)CC(=O)O", "note": "[Atorvastatin]", "values": [{"measurement": "Inhibition of LDL oxidation, in words", "value": "significant inhibition"}]}
